The list does not hold the whole screen: it is rich in T/C values a quarter to a half above the control, in often repeated tests (any T/C) and in doses without a T/C. Further doses and runs are listed elsewhere. T/C: endpoint of the treated group in % of that of the vehicle group. Some entries give survivors of the animals treated and no T/C: the source holds a T/C of zero for them, seemingly a mark for toxic or unscored doses. Some survivor counts are full or nearly so, which does not show that the dose was tolerated: survival well below the control is almost never listed, so the zero probably covers shortened survival too. Survivors were counted at the toxicity check, usually on the fifth day, unless a day is given; later deaths do not show. Schedules are NCI's codes, taken here to give the interval after Q, in days (D) or hours (H), and the number of doses after X. Some structures stand for samples that the source files as different forms (salt, stereo form or complex); doses refer to the form tested. Some entries hold several experiments; the values are given in rising order. Some schedule codes hold Z or #, which are not explained here. Marks such as (2×) count equal records among those shown. Where survival is the endpoint, this PubChem deposit counts one and a half times the control or more as active, and values a quarter to a half above the control carry no call in these data; other NCI protocols may use other cut-offs.
Test system: L1210 leukemia ip in BDF1 mice, survival T/C
Experiment: NCI In Vivo Anticancer Drug Screen. Data for tumor model L1210 Leukemia (intraperitoneal) in B6D2F1 (BDF1) mice
Conditions: T/C endpoint: mean survival time, higher T/C = longer survival
[1] = dose: 100.0 mg/kg/injection, schedule: Q01DX009 (ip), vehicle: saline
[2] = dose: 200.0 mg/kg/injection, schedule: Q01DX009 (ip), vehicle: saline
[3] = dose: 100.0 mg/kg/injection, schedule: Q04DX003 (ip), vehicle: saline with Tween-80
[4] = dose: 100.0 mg/kg/injection, schedule: Q04DX002 (ip), vehicle: saline
[5] = dose: 100.0 mg/kg/injection, schedule: Q04DX003 (ip), vehicle: saline
[6] = dose: 200.0 mg/kg/injection, schedule: Q04DX002 (ip), vehicle: saline
[7] = dose: 400.0 mg/kg/injection, schedule: Q04DX002 (ip), vehicle: saline
[8] = dose: 400.0 mg/kg/injection, schedule: Q04DX003 (ip), vehicle: saline
[9] = dose: 400.0 mg/kg/injection, schedule: Q01DX001 (ip), vehicle: saline with Tween-80
[10] = dose: 200.0 mg/kg/injection, schedule: Q04DX003 (ip), vehicle: saline
[11] = dose: 100.0 mg/kg/injection, schedule: Q01DX001 (ip), vehicle: saline with Tween-80
[12] = dose: 200.0 mg/kg/injection, schedule: Q01DX001 (ip), vehicle: saline with Tween-80

CC(C)(C)c1ccc(OCc2cnc[nH]2)cc1
survivor count [1]: 3 of 6 | survivor count [2]: 0 of 6 | survivor count (dose: 400.0 mg/kg/injection, schedule: Q01DX009 (ip), vehicle: saline): 0 of 6

CN(C)CCCN=Cc1ccccc1O.CN(C)CCCN=Cc1ccccc1O.[Ni+2]
survivor count [3]: 1 of 6 | survivor count (dose: 200.0 mg/kg/injection, schedule: Q04DX003 (ip), vehicle: saline with Tween-80): 0 of 6 | survivor count (dose: 400.0 mg/kg/injection, schedule: Q04DX003 (ip), vehicle: saline with Tween-80): 0 of 6

COc1cc2c(c(OC)c1O)-c1ccc(OC)c(=O)cc1[C@@H](NC(C)=O)CC2
T/C (dose: 12.5 mg/kg/injection, schedule: Q01DX009 (ip), vehicle: saline): 140 % of control | T/C (dose: 25.0 mg/kg/injection, schedule: Q01DX009 (ip), vehicle: saline): 135 % of control | survivor count [1]: 6 of 6 | T/C [4]: 127 % of control | survivor count [4]: 3 of 3 | T/C [5]: 126 % of control | survivor count [6]: 3 of 3 | survivor count [7]: 3 of 3 | survivor count [8]: 6 of 6

CC(C)=NOC(C)C(=O)O (configuration not stated)
survivor count (dose: 300.0 mg/kg/injection, schedule: Q01DX001 (ip), vehicle: saline): 2 of 6 | survivor count [8]: 3 of 6

CC1(C)Cc2c(OC(N)=O)cccc2O1
survivor count (dose: 100.0 mg/kg/injection, schedule: Q01DX001 (ip), vehicle: Klucel (hydroxypropylcellulose) (HPC)): 0 of 6 and 2 of 6 | survivor count (dose: 200.0 mg/kg/injection, schedule: Q01DX001 (ip), vehicle: Klucel (hydroxypropylcellulose) (HPC)): 0 of 6 | survivor count (dose: 400.0 mg/kg/injection, schedule: Q01DX001 (ip), vehicle: Klucel (hydroxypropylcellulose) (HPC)): 0 of 6

CNC(=O)NC1ON=C(c2ccccc2)C1C(=O)NC (configuration not stated)
survivor count [9]: 3 of 6

CCCCCOc1ccc(C=Nc2ccc(C)cc2)cc1
survivor count (dose: 400.0 mg/kg/injection, schedule: Q01DX009 (ip), vehicle: Klucel (hydroxypropylcellulose) (HPC)): 1 of 6

CCOC(=O)C1CCC/C1=N\N=C(N)N (configuration not stated) (tested in a mixture with another compound)
survivor count (dose: 480.0 mg/kg/injection, schedule: Q01DX Z (oral), vehicle: methylcellulose (MC)): 3 of 6

CC1=C2CCC(C)C23C2C(=O)OC(=O)C2C1C1C(=O)OC(=O)C13 (configuration not stated)
survivor count [5]: 3 of 6 | survivor count [10]: 1 of 6 | survivor count [8]: 0 of 6

N#C/C(=C1C=C(Br)/C(=N\O)C=C\1Cl)c1ccc(Cl)cc1
survivor count (dose: 200.0 mg/kg/injection, schedule: Q01DX009 (ip), vehicle: acetone): 5 of 6 | survivor count (dose: 400.0 mg/kg/injection, schedule: Q01DX009 (ip), vehicle: acetone): 2 of 6

c1ccc(C[n+]2cccc3ccccc32)cc1
survivor count [11]: 0 of 6 | survivor count [4]: 1 of 3 | survivor count [12]: 0 of 6 | survivor count [6]: 0 of 3 | survivor count [9]: 0 of 6 | survivor count [7]: 0 of 3

CC(/C=C\C1CCCCC1)=C\C=C\C(C)=C\C=N\Nc1ccc([N+](=O)[O-])cc1[N+](=O)[O-]
survivor count (dose: 12.5 mg/kg/injection, schedule: Q01DX001 (ip), vehicle: saline with Tween-80): 3 of 3 | survivor count (dose: 25.0 mg/kg/injection, schedule: Q01DX001 (ip), vehicle: saline with Tween-80): 3 of 3 | survivor count [11]: 3 of 3 | survivor count [12]: 3 of 3 | survivor count [9]: 3 of 3

COc1cc(C=Nc2ccc(Cl)cc2)ccc1OC(=O)c1ccccc1
survivor count (dose: 400.0 mg/kg/injection, schedule: Q04DX002 (ip), vehicle: saline with Tween-80): 3 of 3

CN(C)C(C)(C)CNc1ccc(C(=O)O)cc1
survivor count (dose: 50.0 mg/kg/injection, schedule: Q01DX009 (ip), vehicle: saline): 6 of 6 | survivor count [1]: 5 of 6 and 6 of 6 | survivor count [2]: 1 of 6 | survivor count [10]: 2 of 6 | survivor count [8]: 0 of 6 (2×)

O=C(CC(C(=O)c1ccccc1)c1ccccc1)c1ccccc1 (configuration not stated)
survivor count (dose: 200.0 mg/kg/injection, schedule: Q01DX009 (ip), vehicle: Klucel (hydroxypropylcellulose) (HPC)): 0 of 6

COc1ccc(F)cc1CC#N
survivor count (dose: 400.0 mg/kg/injection, schedule: Q04DX002 (ip), vehicle: Klucel (hydroxypropylcellulose) (HPC)): 1 of 3

O=C1C=CC(=Nc2ccc3c(c2)C(Br)c2ccccc2-3)O1 (configuration not stated)
survivor count (dose: 18.0 mg/kg/injection, schedule: Q01DX009 (ip), vehicle: saline): 3 of 6 | survivor count (dose: 25.0 mg/kg/injection, schedule: Q01DX001 (ip), vehicle: acetone): 1 of 6 | survivor count (dose: 28.0 mg/kg/injection, schedule: Q04DX003 (ip), vehicle: saline): 3 of 6 | survivor count (dose: 40.0 mg/kg/injection, schedule: Q04DX003 (ip), vehicle: saline): 1 of 6 | survivor count (dose: 50.0 mg/kg/injection, schedule: Q01DX001 (ip), vehicle: acetone): 0 of 6

CC(CC(c1ccccc1)c1ccccc1)[N+](C)(C)C (configuration not stated)
survivor count (dose: 100.0 mg/kg/injection, schedule: Q01DX001 (ip), vehicle: carboxymethylcellulose (CMC)): 0 of 4 | survivor count (dose: 200.0 mg/kg/injection, schedule: Q01DX001 (ip), vehicle: carboxymethylcellulose (CMC)): 0 of 4 | survivor count (dose: 400.0 mg/kg/injection, schedule: Q01DX001 (ip), vehicle: carboxymethylcellulose (CMC)): 0 of 4

CN=Cc1ccccc1O.CN=Cc1ccccc1O.[Cu+2]
survivor count (dose: 75.0 mg/kg/injection, schedule: Q04DX003 (ip), vehicle: acetone): 2 of 6 | survivor count (dose: 150.0 mg/kg/injection, schedule: Q01DX001 (ip), vehicle: acetone): 0 of 6 | survivor count (dose: 300.0 mg/kg/injection, schedule: Q01DX001 (ip), vehicle: acetone): 0 of 6

CC(C)(CC(=O)O)CC(=O)OCC(=O)[C@@]1(O)CC[C@H]2[C@@H]3CCC4=CC(=O)C=C[C@]4(C)[C@H]3[C@@H](O)C[C@@]21C
T/C (dose: 100.0 mg/kg/injection, schedule: Q01DX009 (sc), vehicle: steroid suspending solution): 136 % of control

CC(Oc1ccccc1)C(=O)NC(=S)Nc1cccc2ccccc12 (configuration not stated)
survivor count (dose: 200.0 mg/kg/injection, schedule: Q01DX009 (ip), vehicle: saline with Tween-80): 0 of 3 and 6 of 6 | survivor count (dose: 400.0 mg/kg/injection, schedule: Q01DX009 (ip), vehicle: saline with Tween-80): 0 of 3 and 2 of 6

c1ccc([P+](c2ccccc2)(c2ccccc2)C2OCCO2)cc1
survivor count [3]: 5 of 6

Reference: PubChem BioAssay AID248 (DTP/NCI, 2004)
